The text below walks through data of PubChem BioAssay AID2685 (National Center for Advancing Translational Sciences (NCATS), 2010).

The list shows a part of the results. These are further read-outs of the screen, such as a control signal, another cell line or another target. No call is given for them. Compounds called inactive in the main read-out are mostly missing here. Words in brackets tell the shape of the fitted curve; partial curves, single points and poor fits give uncertain potencies.

The assay is described as follows: qHTS Assay for Lipid Storage Modulators in Drosophila S3 Cells.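 On cell number change: cells counted by Cell Tracker Red CMTPX staining in the red channel.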 The settings on record: BODIPY lipid droplet fluorescence, 18-24 h; for cell number change: measured here: cell count max response, cells fed with added oleic acid. In a few lines:
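Drosophila S3 cells loaded with oleic acid (400 uM, as added) and compounds at several concentrations; lipid droplets imaged by 488-nm laser-scanning cytometry, 500–530 nm intensity and object ratio to cell channel. Percent activity normalized to 20 uM Triacsin C.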

Where [1] appears, read: measured here: lipid fluorescence (Fed channel) AC50, cells fed with added oleic acid.
[2] abbreviates: measured here: cell number channel AC50, cells fed with added oleic acid.

In general, AC50 refers to the midpoint of the concentration-response curve, whichever way the signal moves. Read a low AC50 as greater potency. `CC(=O)N1CCC(C(=O)OCc2ccc(Cl)cc2)(c2ccccc2)CC1`: the cell number change was -11.1%. Under setting [1], the half-maximal activity concentration (AC50) was 3.66 µM [falling, single point].
Take `COc1ccc(CN2CCN(CC(=O)Nc3ccccc3C(=O)NC3CC3)CC2)cc1F`: the cell number change was -8.02%. Also, under setting [1], the AC50 was 6.51 µM [rising, single point].
As for `COC(=O)CC1Nc2ccccc2SC1=O` (stereo not drawn), the cell number change is -101%. Moreover, the half-maximal activity concentration (AC50) under setting [2] was 32.6 µM [falling, single point]. The half-maximal activity concentration (AC50) under setting [1] was 6.51 µM [falling, single point].
With `COc1ccc(/C=N/NC(=O)c2nnn(-c3nonc3N)c2-c2cccc(OC)c2)cc1`, the cell number change is 11.6%. Besides, the AC50 under setting [1] was 8.2 µM [rising, partial curve].
For the compound `CC(=O)Nc1ccc(S(=O)(=O)Nc2ccc3c(c2)n(C)c(=O)n3C)c(C)c1`, the cell number change was found to be 29%.
`Cc1ccc(OC(C)C(=O)Nc2ccc(S(=O)(=O)Nc3nccs3)cc2)cc1` (stereo not drawn): the cell number change was -4.7%. Also, the half-maximal activity concentration (AC50) under setting [1] was 0.58 µM [falling, single point].
With `C[C@H]1CN=C(N(C)C)N1CCC1CCCCC1`, the cell number change was determined as 13.1%. Further, the AC50 under setting [1] is 0.731 µM [rising, full curve, poor fit].
For `CCC(C)n1c(-c2cccc(S(=O)(=O)N3CCOCC3)c2)n[nH]c1=S` (stereo not drawn), the cell number change is -3.31%. For the same compound, the AC50 under setting [1] was 29.1 µM [rising, partial curve].
`Clc1ccccc1-c1nnn(Cc2ccc(-c3nn[nH]n3)cc2)n1`: the cell number change was -5.17%. In addition, the half-maximal activity concentration (AC50) under setting [1] is 0.13 µM [falling, full curve, poor fit].
With `O=C(Cc1cccs1)N1CCC(c2nc3c(nnn3Cc3ccccc3)c(=O)[nH]2)CC1`, the cell number change is -21.9%. The half-maximal activity concentration (AC50) under setting [1] was 0.82 µM [rising, full curve, poor fit].
For the compound `COC(=O)c1ccc(NC(=O)CSc2nc3ccccc3c(=O)[nH]2)cc1`, the cell number change turned out to be 67.3%. The AC50 under setting [2] was 3.66 µM [rising, full curve]. Further, the AC50 under setting [1] is 2.91 µM [rising, partial curve].
Consider `c1ccc(CSc2nnc3ccc(-c4ccncc4)nn23)cc1`, for which the cell number change is -29%. Besides, the half-maximal activity concentration (AC50) under setting [2] is 3.66 µM [falling, full curve, poor fit]. In addition, under setting [1], the AC50 was 29.1 µM [falling, single point].
For `CCN(CC)S(=O)(=O)c1cnccc1N1CCN(c2cccc(Cl)c2)CC1`, the cell number change was 6.26%. For the same compound, under setting [1], the AC50 was 1.46 µM [rising, full curve].
As for `NS(=O)(=O)c1cc(C(=O)OCC(=O)Nc2ccc(N3CCCCC3)cc2)ccc1Cl`, the cell number change was determined as 27.1%. The half-maximal activity concentration (AC50) under setting [1] is 6.51 µM [falling, single point].
In the case of `Cc1cccc(N2N=C(C(=O)Nc3ccc(Cl)c(S(=O)(=O)N4CCOCC4)c3)CCC2=O)c1`, the cell number change is -9.27%. The AC50 under setting [1] was 29.1 µM [falling, single point].
As to `CCCCNS(=O)(=O)c1ccc(NC(=O)C2CCCO2)cc1` (stereo not drawn), the cell number change was determined as 1.1%. Also, the AC50 under setting [1] was 0.92 µM [rising, full curve, poor fit].
Regarding `Cc1c(C(=O)NC2CCN(Cc3ccccc3)C2)oc2c(Cl)cccc12` (stereo not drawn), the cell number change was determined as 42.2%. Moreover, the concentration at half-maximal activity (AC50) under setting [2] was 29.1 µM [rising, single point]. For the same compound, under setting [1], the AC50 is 0.58 µM [falling, single point].
With `O=C(CSc1nnc(NC(=O)Cc2ccccc2)s1)NCc1ccco1`, the cell number change is -30%.
For the compound `COc1ccc(-n2nc(C(=O)NCC(=O)N3CCCC(C)C3)c3ccccc3c2=O)cc1Cl` (stereo not drawn), the cell number change was -31.7%. Besides, the AC50 under setting [2] is 29.1 µM [falling, single point].
Take `Fc1cccc(CSc2ccc(-c3ccc4c(c3)OCO4)nn2)c1`: the cell number change was -0.569%. For the same compound, under setting [1], the concentration at half-maximal activity (AC50) is 0.0058 µM [rising, full curve, poor fit].
`COc1cc(C=O)c(Br)cc1OCc1ccc(C)cc1`: the cell number change was -17.4%. The concentration at half-maximal activity (AC50) under setting [2] is 0.82 µM [rising, single point].
On to `O=C(COc1ccccc1Cl)Nc1cccnc1`, for which the cell number change was 13.9%. Under setting [1], the AC50 is 6.51 µM [rising, full curve, poor fit].
With `CNc1c(NS(=O)(=O)c2cc(NC(C)=O)ccc2C)c(=O)oc2ccccc12`, the cell number change was -6.76%.
Regarding `O=C(NC1CCCc2ccccc21)C1CCCO1` (stereo not drawn), the cell number change came out at 18.5%. In addition, the AC50 under setting [1] was 0.146 µM [falling, full curve, poor fit].
In the case of `O=C(NCCC1=CCCCC1)C1CCN(S(=O)(=O)c2ccccc2C(F)(F)F)CC1`, the cell number change came out at 219%. The AC50 under setting [2] was 20.6 µM [rising, single point].
Consider `CCOC(=O)CCCCC(=O)c1[nH]c(=O)[nH]c1CSc1nc(C)cc(=O)[nH]1`, for which the cell number change came to 8.09%. Also, the AC50 under setting [1] was 0.0058 µM [rising, full curve, poor fit].
Take `CCN1CCN(c2cc(N3CCN(C(=O)c4ccco4)CC3)c3c4c(onc24)-c2ccccc2C3=O)CC1`: the cell number change was -35.8%. Also, the half-maximal activity concentration (AC50) under setting [2] is 8.2 µM [falling, full curve, poor fit].
As for `Cc1cc(NC(=O)CSCC(=O)Nc2cc(C(F)(F)F)ccc2N2CCCC2)no1`, the cell number change amounted to 19.7%. Also, the concentration at half-maximal activity (AC50) under setting [1] was 13 µM [rising, partial curve, poor fit].
As to `COc1ccc2cc(S(=O)(=O)NCc3cccnc3)ccc2c1`, the cell number change is -10.5%. The concentration at half-maximal activity (AC50) under setting [2] was 0.82 µM [falling, partial curve, poor fit]. In addition, the AC50 under setting [1] was 5.62 µM [rising, single point].
In the case of `COc1cccc(/C=N/NC(=O)CN2CC(c3ccccc3)CC2=O)c1OC` (stereo not drawn), the cell number change came to 17.3%.
Consider `O=C(NN=C1c2ccccc2-c2ccccc21)c1ccccn1`, for which the cell number change is -17.3%. Under setting [1], the half-maximal activity concentration (AC50) was 0.92 µM [falling, full curve, poor fit].
For the compound `O=C(O)c1cccc(NC(=S)N/N=C/c2c[nH]c3ccccc23)c1`, the cell number change stood at 86.8%. In addition, the AC50 under setting [2] was 29.1 µM [rising, partial curve, poor fit]. Further, the AC50 under setting [1] is 6.51 µM [rising, single point].
For `CCOC(=O)CNC(=O)CSc1nnc(Cn2cnc3ccccc32)n1C`, the cell number change came out at 3.81%. Moreover, the AC50 under setting [1] is 29.1 µM [falling, partial curve].
For the compound `COc1ccc(N2C(=O)c3ccccc3NC2(C)C)cc1`, the cell number change is -23%. Moreover, the half-maximal activity concentration (AC50) under setting [1] is 2.91 µM [falling, partial curve, poor fit].
Take `Cc1nn(-c2ccccc2)c2[nH]c(=O)c(CNCC3CCCO3)cc12` (stereo not drawn): the cell number change was -4.22%. Also, under setting [1], the AC50 is 1.3 µM [falling, full curve].
For `O=c1cc(C(Cl)(Cl)Cl)oc2c1ccc1ccccc12`, the cell number change is -20.2%. For the same compound, the AC50 under setting [1] was 5.8 µM [falling, full curve].
Turning to `CCN(CC)CCNC(=O)c1ccc(N)cc1`, the cell number change was found to be 20.3%. Also, under setting [1], the AC50 is 0.058 µM [rising, full curve, poor fit].
Regarding `CC1CN(S(=O)(=O)c2ccc(NC(=O)CCCN3C(=O)c4ccccc4C3=O)cc2)CC(C)O1` (stereo not drawn), the half-maximal activity concentration (AC50) reads like this: under setting [2], 4.11 µM [rising, single point]; under setting [1], 6.51 µM [rising, single point].
On to `COc1ccc(Br)cc1CN1CCN(C(=O)c2cccc(F)c2)CC1`, for which the cell number change came out at 15.3%. Also, under setting [1], the AC50 is 20.6 µM [rising, single point].
On to `Cc1ccc(CSCC(=O)N/N=C/c2ccc(OCC(=O)Nc3ccc(C)cc3)cc2)cc1`, for which the cell number change was found to be 10.3%.
On the same count and under the same terms, then `CC(=O)NNC(=O)CN1C(=O)/C(=C/c2ccccc2)SC1=S`, with 10.4%; and `Cc1ccc(-c2csc(NC(=O)C[n+]3cc(-c4ccccc4)n4c3CCC4)n2)cc1`, with 4.88%.
For the compound `Fc1ccc(-c2nnc(CN3CCC(c4nc5ccccc5s4)CC3)o2)cc1`, the cell number change was determined as 15.2%. Besides, the half-maximal activity concentration (AC50) under setting [1] is 0.0651 µM [falling, full curve, poor fit].
Consider `CC(NC(=O)CN1CCN(Cc2ccc(Cl)cc2)C1=O)c1ccc2c(c1)OCCO2` (stereo not drawn), for which the cell number change is -7.21%. Further, the concentration at half-maximal activity (AC50) under setting [1] was 20.6 µM [falling, single point].
For the compound `CC(C)n1c(SCc2cc(=O)[nH]c3ccccc23)nc2c1c(=O)n(C)c(=O)n2C`, the cell number change is 27.4%. Also, under setting [1], the AC50 was 2.06 µM [rising, partial curve].
For `COc1ccc2[nH]c(=O)c(CNc3ccccc3)cc2c1`, the cell number change is -28.2%. Besides, the AC50 under setting [1] is 6.51 µM [falling, partial curve, poor fit].
As to `CCN1C(=O)CC(N2CCC(Cc3ccccc3)CC2)C1=O` (stereo not drawn), the cell number change is -30.1%. In addition, the concentration at half-maximal activity (AC50) under setting [2] is 2.91 µM [falling, full curve]. Besides, the half-maximal activity concentration (AC50) under setting [1] was 0.231 µM [falling, full curve].
On to `CSc1nsc(SCC(=O)Nc2cccc(C(C)=O)c2)n1`, for which the cell number change worked out at 42.9%. Moreover, the AC50 under setting [2] is 29.1 µM [rising, single point].
In the case of `CSc1nccc(N2CCN(c3ccc(F)cc3)CC2)n1`, the cell number change was -53.7%. The half-maximal activity concentration (AC50) under setting [2] was 0.326 µM [falling, partial curve]. For the same compound, the AC50 under setting [1] is 2.06 µM [rising, partial curve].
Take `O=C(Nc1ccccc1NS(=O)(=O)c1ccc(F)cc1)C1CCC1`: the cell number change came to 9.26%. Besides, the concentration at half-maximal activity (AC50) under setting [2] is 0.116 µM [rising, single point]. For the same compound, the AC50 under setting [1] is 0.116 µM [rising, single point].
For the compound `COc1ccccc1-c1cc(C(=O)NC2CCCC2)no1`, the cell number change is 18.3%.
As to `COc1ccc(CCNC(=O)c2cc([N+](=O)[O-])cc([N+](=O)[O-])c2)cc1OC`, the cell number change came to 14%. Under setting [1], the AC50 was 0.326 µM [rising, full curve].
On to `O=C(CSc1ncn[nH]1)NCCOc1ccccc1`, for which the cell number change was found to be 1.55%. In addition, under setting [1], the concentration at half-maximal activity (AC50) is 4.11 µM [falling, single point].
As for `CCn1cc(CN2CCCC(C(=O)c3ccc(-c4ccccc4)cc3)C2)cn1` (stereo not drawn), the cell number change was -6.35%.
As for `COc1ccc(CNC(=O)[C@H](C)N2C(=O)N3CCc4c([nH]c5ccccc45)[C@@]3(C)C2=O)cc1OC`, the cell number change was -5.5%. Under setting [1], the concentration at half-maximal activity (AC50) was 2.31 µM [falling, partial curve].
In the case of `CN(Cc1ccco1)C(=O)CSc1nc(C2CC2)n(-c2ccccc2)n1`, the cell number change was -16.6%. Besides, the AC50 under setting [1] is 0.259 µM [rising, full curve].
In the case of `CN(C)S(=O)(=O)c1ccc(N2CCCC2)c(C(=O)Nc2ccc(N3CCOCC3)cc2)c1`, the cell number change is 31.7%. Moreover, under setting [2], the AC50 was 29.1 µM [rising, single point]. Also, under setting [1], the AC50 is 4.11 µM [rising, full curve].
Turning to `Cc1ccc(NC(=O)CN(C)C(=O)c2cccnc2Nc2cccc(C(F)(F)F)c2)cc1`, the cell number change is -34.8%. Besides, the AC50 under setting [2] is 18.4 µM [falling, single point]. Also, the half-maximal activity concentration (AC50) under setting [1] was 29.1 µM [falling, single point].
